Publication PMC12750793

Sequences of proteins named here, by UniProt entry; tags and fusion partners are left off.
UniProt Q96KQ7: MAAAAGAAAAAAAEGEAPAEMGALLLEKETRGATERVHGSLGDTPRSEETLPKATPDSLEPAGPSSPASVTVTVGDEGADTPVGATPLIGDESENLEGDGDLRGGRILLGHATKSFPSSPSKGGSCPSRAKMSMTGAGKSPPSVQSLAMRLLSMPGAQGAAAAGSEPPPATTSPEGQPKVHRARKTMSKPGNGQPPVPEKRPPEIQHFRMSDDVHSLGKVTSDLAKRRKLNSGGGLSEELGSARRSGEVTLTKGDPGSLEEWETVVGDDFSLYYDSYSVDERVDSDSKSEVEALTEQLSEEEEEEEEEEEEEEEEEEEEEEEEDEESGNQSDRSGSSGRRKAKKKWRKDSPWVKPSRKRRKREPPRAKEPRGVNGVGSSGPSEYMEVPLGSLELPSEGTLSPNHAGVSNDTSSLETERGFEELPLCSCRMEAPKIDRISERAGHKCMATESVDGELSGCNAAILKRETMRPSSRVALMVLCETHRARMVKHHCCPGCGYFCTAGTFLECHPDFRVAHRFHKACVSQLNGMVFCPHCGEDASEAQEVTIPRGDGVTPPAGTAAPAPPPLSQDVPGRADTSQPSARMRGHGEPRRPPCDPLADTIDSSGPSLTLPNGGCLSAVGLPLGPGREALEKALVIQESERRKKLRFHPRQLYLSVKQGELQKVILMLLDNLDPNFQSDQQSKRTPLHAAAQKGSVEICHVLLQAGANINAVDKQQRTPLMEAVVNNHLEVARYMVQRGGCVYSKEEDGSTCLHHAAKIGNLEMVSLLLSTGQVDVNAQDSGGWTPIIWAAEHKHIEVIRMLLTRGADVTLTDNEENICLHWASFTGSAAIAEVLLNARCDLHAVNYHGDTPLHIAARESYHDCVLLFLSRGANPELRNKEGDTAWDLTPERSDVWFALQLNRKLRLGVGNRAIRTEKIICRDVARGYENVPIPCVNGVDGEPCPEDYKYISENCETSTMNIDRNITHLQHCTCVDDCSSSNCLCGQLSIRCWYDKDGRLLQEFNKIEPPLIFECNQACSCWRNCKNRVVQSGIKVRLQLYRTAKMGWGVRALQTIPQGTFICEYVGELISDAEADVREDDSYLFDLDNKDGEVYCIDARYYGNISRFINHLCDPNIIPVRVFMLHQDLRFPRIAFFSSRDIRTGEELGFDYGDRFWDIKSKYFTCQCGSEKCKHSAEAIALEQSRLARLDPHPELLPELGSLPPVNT
UniProt O43524: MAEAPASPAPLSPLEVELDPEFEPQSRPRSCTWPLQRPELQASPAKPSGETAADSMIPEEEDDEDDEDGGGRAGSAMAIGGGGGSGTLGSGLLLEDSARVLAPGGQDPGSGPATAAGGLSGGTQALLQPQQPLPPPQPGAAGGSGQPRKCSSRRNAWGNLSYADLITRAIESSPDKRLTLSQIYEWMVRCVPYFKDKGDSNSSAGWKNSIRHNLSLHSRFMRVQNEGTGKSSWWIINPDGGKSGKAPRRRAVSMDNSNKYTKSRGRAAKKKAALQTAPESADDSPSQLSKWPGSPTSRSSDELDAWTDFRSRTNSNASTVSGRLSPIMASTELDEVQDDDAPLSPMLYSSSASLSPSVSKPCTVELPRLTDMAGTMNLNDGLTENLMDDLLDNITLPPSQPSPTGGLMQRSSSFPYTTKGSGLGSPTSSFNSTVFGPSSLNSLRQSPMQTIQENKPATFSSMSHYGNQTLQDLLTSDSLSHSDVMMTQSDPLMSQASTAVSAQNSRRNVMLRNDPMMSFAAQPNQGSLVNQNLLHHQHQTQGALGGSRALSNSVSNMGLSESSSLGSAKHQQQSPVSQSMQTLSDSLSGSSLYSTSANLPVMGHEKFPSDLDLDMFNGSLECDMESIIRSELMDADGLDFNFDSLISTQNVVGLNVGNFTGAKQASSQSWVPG

Biological target: G9a (UniProt Q96KQ7)
Experiment: affinity purification with mass spectrometry; proteins interacting with G9a identified by MS; cells and way of capture not stated

binding: binds
Substance: FoxO3a (from UniProt O43524 1-673)

These are yes or no findings as the source states them, for the method shown. In cells and extracts the contact can be indirect. These calls come from enrichment with a bait or labelling near it, and not all partners need be listed.
